Reference: patent US20250154171A1, “RAS INHIBITORS” (Revolution Medicines, Inc., priority 2023, published 2025)
Some of these results come from one statement about several compounds together. For part of these data: At least one structure is not confirmed: it was looked up by name or label, or the drawing left a doubt.

The chains behind the UniProt entries cited, without tags or fusion partners. Where a name states a change or a piece, a line headed by the entry shows the natural chain unless it says otherwise. Residues count along the entry.
UniProt P01116, 1-188 isoform P01116-2 G12V: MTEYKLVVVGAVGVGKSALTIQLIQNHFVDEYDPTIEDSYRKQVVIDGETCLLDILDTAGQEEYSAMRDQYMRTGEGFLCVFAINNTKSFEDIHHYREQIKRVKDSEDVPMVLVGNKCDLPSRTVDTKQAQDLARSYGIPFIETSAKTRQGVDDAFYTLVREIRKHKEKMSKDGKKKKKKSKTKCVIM
UniProt P01116, 1-188 isoform P01116-2 G12A: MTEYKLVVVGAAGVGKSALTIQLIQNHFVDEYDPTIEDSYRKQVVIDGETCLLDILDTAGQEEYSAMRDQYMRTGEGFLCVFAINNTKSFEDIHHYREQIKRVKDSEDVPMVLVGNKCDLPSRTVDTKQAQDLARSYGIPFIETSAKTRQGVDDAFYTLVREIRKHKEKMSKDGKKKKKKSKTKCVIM
UniProt P62937, whole entry: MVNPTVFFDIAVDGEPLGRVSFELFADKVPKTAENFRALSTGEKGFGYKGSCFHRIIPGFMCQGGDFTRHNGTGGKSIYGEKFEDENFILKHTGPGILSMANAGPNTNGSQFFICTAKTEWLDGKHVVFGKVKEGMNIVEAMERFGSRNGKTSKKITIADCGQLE

Key:
K-RasG12V = K-RasG12V (Homo sapiens, UniProt P01116+P62937, G12V); assay: Disruption of BRAF RBD interaction with K-Ras (TR-FRET / MOA assay), K-RasG12V; format: biochemical; settings: TR-FRET with cyclophilin A and GST-BRAF RBD, read-out: IC50 with respect to K-RasG12V (disruption of BRAF RBD interaction)
K-RasG12A = K-RasG12A (Homo sapiens, UniProt P01116+P62937, G12A); assay: Disruption of BRAF RBD interaction with K-Ras (TR-FRET / MOA assay), K-RasG12A; format: biochemical; settings: TR-FRET with cyclophilin A and GST-BRAF RBD, read-out: IC50 with respect to K-RasG12A (disruption of BRAF RBD interaction)
Capan-1 (K-Ras G12V) = assay: CellTiter-Glo cell viability assay, Capan-1; format: cell-based, human; settings: 5-day treatment, Capan-1 and/or NCI-H2009 versus A375

SMILES	IC50 (K-RasG12V) [nM]	IC50 (K-RasG12A) [nM]	decrease in cell viability with respect to Capan-1 and/or NCI-H2009 versus wild-type KRAS (A375) (Capan-1 (K-Ras G12V))
CO[C@@H](C)c1ncc(N2CCN(C3CC3)CC2)cc1-c1c2c3cc(ccc3n1CCOC1CCOCC1)-c1csc(n1)[C@@H](N1CC3(COC3)C1)[C@H](NC(=O)[C@@H]1[C@@H](C)[C@H]1C(=O)N(C)Cc1ccccc1)C(=O)N1CCC[C@H](N1)C(=O)OCC(C)(C)C2 [Example A1092]	< 1000	< 1000	greater decrease in cell viability
CO[C@@H](C)c1ncc(N2CCN(C3CC3)CC2)cc1-c1c2c3cc(ccc3n1CCOC1CCOCC1)-c1csc(n1)[C@@H](N1CC3(COC3)C1)[C@H](NC(=O)C13CC(S(C)(=O)=O)(C1)C3)C(=O)N1CCC[C@H](N1)C(=O)OCC(C)(C)C2 [Example A1124]	< 1000	< 1000	greater decrease in cell viability
CO[C@@H](C)c1ncc(N2CCN(C3CC3)CC2)cc1-c1c2c3cc(ccc3n1C1CN(C3CC3)C1)-c1coc(n1)[C@@H](N1CC3(COC3)C1)[C@H](NC(=O)C13CC(C1)[C@@H](C)O3)C(=O)N1CCC[C@H](N1)C(=O)OCC(C)(C)C2 [Example A1128]	< 1000	< 1000	greater decrease in cell viability
CO[C@@H](C)c1ncccc1-c1c2c3cc(ccc3n1C1CN(C3CC3)C1)-c1csc(n1)[C@@H](N1C3CCCC1CC3)[C@H](NC(=O)[C@@H]1[C@@H](C)[C@H]1c1ccncn1)C(=O)N1CCC[C@H](N1)C(=O)OCC(C)(C)C2 [Example A1130]	< 1000	< 1000	greater decrease in cell viability
C[C@@H]1[C@@H](C(=O)N[C@@H]2C(=O)N3CCC[C@H](N3)C(=O)OCC(C)(C)Cc3c(-c4cccnc4)n([C@H]4CC[C@H](C#N)C4)c4ccc(cc34)-c3csc(n3)[C@H]2N2CC3(CCN3)C2)[C@@H]1c1ccncn1 [Example A1139]	< 1000	< 1000	greater decrease in cell viability
C[C@@H]1[C@@H](C(=O)N[C@@H]2C(=O)N3CCC[C@H](N3)C(=O)OCC(C)(C)Cc3c(-c4cccnc4)n([C@H]4CC[C@H](C#N)C4)c4ccc(cc34)-c3csc(n3)[C@H]2N2CC3(CCCN3)C2)[C@@H]1c1ccncn1 [Example A1153]	< 1000	< 1000	greater decrease in cell viability

Now from value to molecule, other results behind:

IC50 (K-RasG12V) [nM]	IC50 (K-RasG12A) [nM]	SMILES	decrease in cell viability with respect to Capan-1 and/or NCI-H2009 versus wild-type KRAS (A375) (Capan-1 (K-Ras G12V))
< 1000	< 1000	CO[C@@H](C)c1ncccc1-c1c2c3cc(ccc3n1C1CN(C3CC3)C1)-c1coc(n1)[C@@H](N1CC3(CCN3C)C1)[C@H](NC(=O)[C@H]1[C@H](C)[C@@H]1C)C(=O)N1N[C@H](C(=O)OCC(C)(C)C2)C2CC1C2 [Example A1025]	greater decrease in cell viability
< 1000	< 1000	CO[C@@H](C)c1ncccc1-c1c2c3cc(ccc3n1C1CN(C3CC3)C1)-c1coc(n1)[C@@H](N1CC3(CCN3C)C1)[C@H](NC(=O)[C@@H]1[C@@H](C)[C@H]1c1ccncn1)C(=O)N1N[C@H](C(=O)OCC(C)(C)C2)C2CC1C2 [Example A1026]	greater decrease in cell viability
< 1000	< 1000	CO[C@@H](C)c1ncccc1-c1c2c3cc(ccc3n1[C@H]1C[C@@H](C#N)C1)-c1coc(n1)[C@@H](N1CC3(CCCN3)C1)[C@H](NC(=O)[C@H]1[C@H](C)[C@@H]1C)C(=O)N1N[C@H](C(=O)OCC(C)(C)C2)C2CC1C2 [Example A1140]	greater decrease in cell viability
< 1000	< 1000	CO[C@@H](C)c1ncccc1-c1c2c3cc(ccc3n1[C@H]1C[C@@H](C#N)C1)-c1csc(n1)[C@@H](N1CC3(CCN3)C1)[C@H](NC(=O)[C@H]1[C@H](C)[C@@H]1C)C(=O)N1N[C@H](C(=O)OCC(C)(C)C2)C2CC1C2 [Example A1142]	greater decrease in cell viability
< 1000	< 1000	CO[C@@H](C)c1ncccc1-c1c2c3cc(ccc3n1[C@H]1C[C@H](C#N)C1)-c1csc(n1)[C@@H](N1CC3(CCCN3)C1)[C@H](NC(=O)[C@H]1[C@H](C)[C@@H]1C)C(=O)N1N[C@H](C(=O)OCC(C)(C)C2)C2CC1C2 [Example A1155]	greater decrease in cell viability
< 1000	< 1000	CO[C@@H](C)c1ncccc1-c1c2c3cc(ccc3n1[C@H]1C[C@@H](C#N)C1)-c1csc(n1)[C@@H](N1CC3(CCCN3)C1)[C@H](NC(=O)[C@H]1[C@H](C)[C@@H]1C)C(=O)N1N[C@H](C(=O)OCC(C)(C)C2)C2CC1C2 [Example A1156]	greater decrease in cell viability
< 1000	< 1000	CO[C@@H](C)c1ncccc1-c1c2c3cc(ccc3n1[C@H]1C[C@@H](C#N)C1)-c1coc(n1)[C@@H](OCc1ccccn1)[C@H](NC(=O)[C@H]1[C@H](C)[C@@H]1C)C(=O)N1N[C@H](C(=O)OCC(C)(C)C2)C2CC1C2 [Example A1174]	greater decrease in cell viability
< 1000	< 1000	CO[C@@H](C)c1ncccc1-c1c2c3cc(ccc3n1C1CS(=O)(=O)C1)-c1csc(n1)C(N1CC3(COC3)C1)[C@H](NC(=O)[C@@H]1OC[C@@H]1C)C(=O)N1CCC[C@H](N1)C(=O)OCC(C)(C)C2 (stereo partly drawn) [Example A1196]	greater decrease in cell viability
